The target in the assay is T1, Flag-Whi2 (3xFLAG-Whi2, Saccharomyces cerevisiae) (Saccharomyces cerevisiae) (UniProt P12611).
T1 sequence: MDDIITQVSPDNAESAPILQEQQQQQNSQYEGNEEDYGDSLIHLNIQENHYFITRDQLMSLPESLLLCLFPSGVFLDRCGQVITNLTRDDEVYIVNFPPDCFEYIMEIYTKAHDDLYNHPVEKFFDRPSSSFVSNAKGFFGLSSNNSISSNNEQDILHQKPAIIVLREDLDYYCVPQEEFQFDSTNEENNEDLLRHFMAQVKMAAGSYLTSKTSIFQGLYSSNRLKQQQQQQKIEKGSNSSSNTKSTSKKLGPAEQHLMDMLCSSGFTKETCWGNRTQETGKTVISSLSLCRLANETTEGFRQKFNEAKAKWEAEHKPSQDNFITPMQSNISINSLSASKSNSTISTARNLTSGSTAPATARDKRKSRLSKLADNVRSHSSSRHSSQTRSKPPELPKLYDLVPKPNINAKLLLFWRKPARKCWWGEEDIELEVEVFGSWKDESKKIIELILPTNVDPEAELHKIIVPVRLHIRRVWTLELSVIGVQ
Briefly: co-IP; HA-Psr1 co-expressed with Flag-Whi2 or an empty vector in the WT (BY4741) yeast strain; anti-Flag immunoprecipitates analysed on immunoblots with anti-HA and anti-Flag. (A western blot detects proteins with antibodies after separation by electrophoresis.)

No constants are given. Whether binding was seen depends on the method and setting. In cells and extracts the contact can be indirect. Some binding calls cover weakened binding; strength is not graded here. Where a sequence is shown, tags or fusion partners need not be part of it.

B1: HA-Psr1 (Saccharomyces cerevisiae protein phosphatase Psr1) (enzyme, UniProt Q07800 1-427)
chain: MGFISSILCCSSETTQSNSNSAYRQQQSSSLNKNRSVKHSNTKSRTRGVHQTNSPPSKTNSAATFSSTERSTGKSGISTNDNEKKKPSSPTAAVTATTTNNMTKVEKRISKDDLYEEKYEVDEDEEIDDEDNRRSRGIVQEKGDAVKDTSRQKKQQQQQQQQSQPQPQPQSQSQSQSQSQSQQRGPTVQVSSDHLIQDMNLSRVSSSSQASETSNDADDEDDEDEEYIDLTLLQQGQYHAPGYNTLLPPQDESTKGKKCLILDLDETLVHSSFKYLRSADFVLSVEIDDQVHNVYVIKRPGVEEFLERVGKLFEVVVFTASVSRYGDPLLDILDTDKVIHHRLFREACYNYEGNYIKNLSQIGRPLSDIIILDNSPASYIFHPQHAIPISSWFSDTHDNELLDIIPLLEDLSVKTSLDVGKILDVTI
Turning to B1, the binding result was “binds”.

For the origin of these results see paper PMC6126876.
